Data on 1 substance can be found in PMC6948192, “Structural Organization and Dynamics of Homodimeric Cytohesin Family Arf GTPase Exchange Factors in Solution and on Membranes” (Structure(London, England:1993), 2019).

Chains of the proteins cited; added tags and fusions are not shown. Lines headed by an entry give the natural chain unless they say otherwise; changes in a name come on top. Residues count along the entry.
UniProt Q99418, residues 50-400: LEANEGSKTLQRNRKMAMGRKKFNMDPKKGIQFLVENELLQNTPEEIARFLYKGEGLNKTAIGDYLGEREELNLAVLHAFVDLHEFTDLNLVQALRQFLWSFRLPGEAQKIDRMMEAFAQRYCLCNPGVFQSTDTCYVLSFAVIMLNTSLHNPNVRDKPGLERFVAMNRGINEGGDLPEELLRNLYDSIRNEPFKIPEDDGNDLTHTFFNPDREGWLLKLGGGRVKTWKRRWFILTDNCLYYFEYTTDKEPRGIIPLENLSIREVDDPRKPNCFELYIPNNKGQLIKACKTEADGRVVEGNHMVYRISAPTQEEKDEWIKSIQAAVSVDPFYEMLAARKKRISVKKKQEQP

This assay has as its target ARNO construct truncated for the N-terminal CC domain (residues 50-400; ARNOΔNt) (human) (UniProt Q99418). The assay is described as follows: SEC-SAXS; ARNOΔNt; SWING beamline (SOLEIL), Bio SEC-3 300 Å column, 350 μg in 40 μL (8 mg/ml) injected; 20 mM Tris pH 8.0, 150 mM NaCl, 1 mM DTT; both purified. (In general: Size exclusion chromatography separates by hydrodynamic size, large species first.)

These are yes or no findings as the source states them, for the method shown.

Consider “ARNO construct truncated for the N-terminal CC domain (residues 50-400; ARNOΔNt) (from UniProt Q99418 50-400) (domain or fragment)”, for which the binding entry is reported as “no binding (tested: 8 mg/ml injected (350 μg in 40 μL))”.
